According to patent US20200140551A1:
These are yes or no findings as the source states them, for the method shown. Some entries that bind do so weakly or less than the wild type.

Target: cynomolgus ICOS (cynomolgus)
Assay: screen of the humanized variants; method not described

binding: binds
B1: 422 H2L5 IgG1 WT (antibody, V domains shown)
VH: QVQLVQSGAEVKKPGSSVKVSCKASGYTFTDYAMHWVRQAPGQGLEWMGLISIYSDHTNYNQKFQGRVTITADKSTSTAYMELSSLRSEDTAVYYCGRNNYGNYGWYFDVWGQGTTVTVSS
VL: EIVLTQSPATLSLSPGERATLSCSASSSVSYMHWYQQKPGQAPRLLIYDTSKLASGIPARFSGSGSGTDYTLTISSLEPEDFAVYYCFQGSGYPYTFGQGTKLEIK
